Experimental data taken from PubChem BioAssay AID651660 (Broad Institute, 2012).
Screen size: about 1,900 compounds; about 15 (0.8%) were called active.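 Rule for the calls: active = every replicate shows at least 50% inhibition; inconclusive = mean inhibition at least 50% but some replicate below; inactive = the rest.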 Some of the results follow.

Amino acid sequences for entries named in this document (tags omitted). A change or cut given only in a name is not applied to a line headed by its entry.
UniProt P43351: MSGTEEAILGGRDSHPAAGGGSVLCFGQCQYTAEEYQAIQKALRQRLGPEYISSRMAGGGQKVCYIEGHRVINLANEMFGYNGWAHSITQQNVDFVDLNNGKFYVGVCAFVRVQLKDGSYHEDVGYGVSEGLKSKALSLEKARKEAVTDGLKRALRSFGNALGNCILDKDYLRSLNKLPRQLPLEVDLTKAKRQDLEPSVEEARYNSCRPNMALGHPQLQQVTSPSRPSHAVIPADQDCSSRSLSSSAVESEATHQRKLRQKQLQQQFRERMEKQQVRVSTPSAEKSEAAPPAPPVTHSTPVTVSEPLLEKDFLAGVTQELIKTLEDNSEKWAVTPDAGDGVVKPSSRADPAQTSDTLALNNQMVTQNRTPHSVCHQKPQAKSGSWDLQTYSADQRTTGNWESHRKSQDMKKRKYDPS

These compounds were tested against DNA repair protein RAD52 homolog (Homo sapiens) (UniProt P43351) (assay: inhibition of RAD52-mediated strand annealing – biochemical, FRET, single point, primary screen (AID 651660;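 note: 0% = median of neutral control wells and 100% = median of positive control wells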)). Details: Recombinant RAD52 ssDNA annealing, FRET fluorescence, 30 min; at 18.7 µM; stronger effect = higher value.

| SMILES | inhibition |
| --- | --- |
| O=C1OCCN1/N=C/c1ccc([N+](=O)[O-])o1 | inactive: -8.97% |
| COc1ccc(CCN(C)CC(=O)Nc2cc(C)nc3ccccc23)cc1OC | inactive: -1.66% |
| COc1ccc(NC2=C(Cl)C(=O)N(c3ccccc3)C2=O)c(OC)c1 | inactive: 15.8% |
| CCN(CCCCCN(C)C)Cc1cc2ccccc2o1 | inactive: -1.51% |
| COc1ccc(NC(=O)C2CSC3c4ccccc4C(=O)N23)cc1 (stereo not given) | inactive: 2.73% |
| CN(C)c1nc(N(C)C)nc(N(C)C)n1 | inactive: 3.34% |
| O=C(CCc1c[nH]c2ccccc12)NCc1ccco1 | inactive: 0.815% |
| COC(=O)CSc1nc2ccc(N)cc2s1 | inactive: 3.86% |
| Cc1ccc2nc(C)c3c(c2c1)OC(C(C)(Cl)Br)C3 (stereo not given) | inactive: 3.5% |
| Nc1ccc2[nH]ncc2c1 | active: 59.5% |
| NNC(=O)c1cc(O)c(O)c(O)c1 | inactive: 30.2% |
| C=C(C)COc1ccc(-c2nc(N)ncc2-c2ccc(OC)cc2)c(O)c1 | inactive: 22.9% |
| Cc1ccc(S(=O)(=O)N2CCC(C(=O)N[C@@H](C)C(=O)NC3CCS(=O)(=O)C3)CC2)cc1 (stereo not given in full) | inactive: 0.33% |
| O=C(O)c1cc(-c2ccccc2)nc2ccccc12 | inactive: -18.5% |
| CC(=O)O[C@]1(C(C)=O)CC[C@H]2[C@@H]3C[C@H](C)C4=CC(=O)CC[C@]4(C)[C@H]3CC[C@@]21C | inactive: 3.67% |
| C[C@H]1C[C@@H]2[C@H]([C@@H](O)C[C@@]3(C)[C@H]2CC[C@]3(O)C(=O)CO)[C@@]2(C)C=CC(=O)C=C12 | inactive: -9.66% |
| CCOC(=O)N1CCN(Cc2nc(Cc3cccc(F)c3)no2)CC1 | inactive: -2.4% |
| COc1ccc(NC(=O)Nc2ccc(C(C)C)cc2)cc1 | inactive: -5.3% |
| O=C1[C@@H]2[C@H](Cc3ccc(O)cc3)N[C@]3(C(=O)Nc4ccccc43)[C@@H]2C(=O)N1c1ccc(F)cc1 | inactive: 1.15% |
| COC(=O)c1ccc(-c2ncc(-c3cccc4ccccc34)o2)cc1 | inactive: -4.15% |
| O=C(Nc1ccccc1C(=O)N1CCCCCC1)c1ccccc1Cl | inactive: -8.31% |
| CCCNCC(O)COc1ccccc1C(=O)CCc1ccccc1 (stereo not given) | inactive: 17.1% |
| CC12CCC(C(=O)NCc3ccccn3)(OC1=O)C2(C)C (stereo not given) | inactive: -7.18% |
| O=[N+]([O-])c1cccc2cn[nH]c12 | inactive: 4.4% |

| SMILES | inhibition |
| --- | --- |
| CN1CCc2c(n(CC(O)CN(CCO)CCO)c3ccccc23)C1=O (stereo not given) | inactive: 11.3% |
| CSCCC(NC(=O)/C(=C/c1ccc2c(c1)OCO2)NC(=O)c1cccc([N+](=O)[O-])c1)C(=O)O (stereo not given) | inactive: -0.767% |
| CCOC(=O)C1C(=O)CC(C)(O)C(C(=O)OCC)C1/C=C/c1ccccc1 (stereo not given) | inactive: -0.446% |
| CCc1cn([C@H]2C[C@H](O)[C@@H](CO)O2)c(=O)[nH]c1=O | inactive: -4.5% |
| CC(C)c1ccc(NC(=O)CNS(=O)(=O)c2ccc(F)cc2)cc1 | inactive: 3.93% |
| Oc1ccccc1OCCOc1ccccc1OCCOc1ccccc1O | inactive: 20% |
| CCOCC(=O)Nc1nc2ccccc2s1 | inactive: 1.68% |
| O=c1[nH]c(=O)n(C2CCCO2)cc1F (stereo not given) | inactive: -3.21% |
| CC(NCCC(c1ccccc1)c1ccccc1)c1ccccc1 (stereo not given) | inactive: 15.4% |
| CC(C)c1ccccc1OCCNC(=S)NC(=O)c1cccnc1 | inactive: -11.8% |
| COc1c2occc2c(OC)c2c(=O)cc(C)oc12 | inactive: 8.21% |
| CSc1cccc(NC(=O)/C=C/c2ccccc2)c1 | inactive: 5.27% |
| COc1ccc(CCN(C)CCCC(C#N)(c2cc(OC)c(OC)c(OC)c2)C(C)C)cc1OC (stereo not given) | inactive: -3.47% |
| CC(C)(C)C(=O)N1CCCC1C(=O)O (stereo not given) | inactive: -3.81% |
| COc1ccc(-c2coc3cc(OC(=O)N4CCOCC4)ccc3c2=O)cc1 | inactive: -0.331% |
| O=C(O)C(O)c1ccccc1 (stereo not given) | inactive: -6.03% |
| CC1(C)CC(NC(=O)C23CCC(C)(C(=O)C2=O)C3(C)C)CC(C)(C)N1 (stereo not given) | inactive: -9.12% |
| Nc1cccc2c1nnn2C1OC(CO)C(O)C(O)C1O (stereo not given) | inactive: 3.85% |
| Cc1ccccc1C(=O)Oc1ccc(Sc2ccc(O)cc2)cc1 | inactive: 7.65% |
| CC(C)CC(=O)OC1C(N2CCOCC2)c2c(ccc(/C=C/C(=O)N3CCOCC3)c2O)OC1(C)C (stereo not given) | inactive: -11.1% |
| CCN(CC)C1=C(Cl)C(=O)C(Cl)C12OCCO2 (stereo not given) | inactive: -5.84% |
| O=C(NCCN1CCCCC1)c1c(O)c2ccccc2[nH]c1=O | inactive: 10.9% |
| Cc1ccc(C(=O)NC(=S)NCCCN2CCOCC2)cc1 | inactive: -5.32% |
| Cc1ccc(N2CCN(C(=S)c3ccc(-c4cccc([N+](=O)[O-])c4)o3)CC2)cc1 | inactive: 8.61% |

Single values from the results shown:
`O=C(CCc1c[nH]c2ccccc12)NCc1ccco1` | inhibition: inactive: 0.815%
`Nc1ccc2[nH]ncc2c1` | inhibition: active: 59.5%
`CCN(CC)C1=C(Cl)C(=O)C(Cl)C12OCCO2` (stereo not given) | inhibition: inactive: -5.84%
`COc1ccc(NC2=C(Cl)C(=O)N(c3ccccc3)C2=O)c(OC)c1` | inhibition: inactive: 15.8%
`CC1(C)CC(NC(=O)C23CCC(C)(C(=O)C2=O)C3(C)C)CC(C)(C)N1` (stereo not given) | inhibition: inactive: -9.12%

(list continues)

| SMILES | inhibition |
| --- | --- |
| COc1ccc(-c2cc(=Nc3ccc(C)cc3)c3ccccc3o2)cc1 | inactive: 2.9% |
| COc1cc(C2CC(=O)NC3=C2C(=O)CC(C)(C)C3)ccc1O (stereo not given) | inactive: 1.28% |
| N#C/C(=C/c1ccccc1)C(=O)NCc1ccccc1 | inactive: 0.216% |
| O=C(CCC1CCCN(C(=O)c2ccsc2)C1)NCc1ccc(F)c(F)c1 (stereo not given) | inactive: 12.5% |
| Cc1cccc(C(=O)c2cccc(C)c2)c1 | inactive: -3.42% |
| Cc1cnc(NC(=O)C2=C(O)c3ccccc3S(=O)(=O)N2C)s1 | inactive: 1.11% |
| O=C(O)CCCc1ccccc1 | inactive: -13.2% |
| CC1(C)O[C@@H]2C[C@H]3[C@@H]4CCC5=CC(=O)C=C[C@]5(C)[C@@]4(F)[C@@H](O)C[C@]3(C)[C@]2(C(=O)CO)O1 | inactive: -0.958% |
| COc1ccc(/C=C\c2nc(=O)c3ccccc3o2)cc1 | inactive: -13.4% |
| O=C(NCCc1c[nH]c2ccccc12)c1cccnc1 | inactive: -5.07% |
| CCCOc1ccc(-c2cc(C(=O)NCC3CCCO3)c3ccccc3n2)cc1 (stereo not given) | inactive: 1.26% |
| CC1CC(OC(=O)C(O)c2ccccc2)CC(C)(C)N1C (stereo not given) | inactive: -5.83% |
| CC(=O)OCC(OC(C)=O)C(OC(C)=O)C(OC(C)=O)C(=O)Nc1cccc(C)c1 (stereo not given) | inactive: -6.47% |
| Cc1nnc(NS(=O)(=O)c2ccc(N)cc2)s1 | inactive: 5.04% |
| CCN1CCN(c2cc3c(cc2F)c(=O)c(C(=O)O)cn3C2CC2)CC1 | inactive: 12.1% |
| CC(C)N1C(=O)/C(=C\c2nc3ccccc3c(=O)[nH]2)c2ccccc21 | inactive: 7.7% |
| O=C1ON=C(c2ccc(Cl)cc2)/C1=C/c1ccc(O)cc1 | inactive: -74.5% |
| Cc1ccc(Cl)c(Nc2ccccc2C(=O)O)c1Cl | inactive: -11.1% |
| CC(C(=O)O)c1ccc(N2Cc3ccccc3C2=O)cc1 (stereo not given) | inactive: -5.86% |
| COc1cccc(=O)c2c(C)n(CC(=O)c3ccccc3)c(C)c12 | inactive: -138% |
| CCn1nc(C(=O)O)c(=O)c2cc3c(cc21)OCO3 | inactive: -1.73% |
| CCCN1CCC(NC(=O)Nc2ccc(Br)cc2)CC1 | inactive: 3.41% |
| Fc1ccc(-n2cc(CNCCc3ccccn3)c(-c3ccccc3Cl)n2)cc1 | inactive: 16.8% |
| CC(=O)Nc1ccc(S(=O)(=O)c2ccc(N)cc2)cc1 | inactive: -10.6% |

| SMILES | inhibition |
| --- | --- |
| CCS(=O)(=O)Nc1cc(OC)c(OC)cc1Cc1nccc2cc(OC)c(OC)cc12 | inactive: 8.07% |
| CN(C)c1ccc(CNCCC(Cc2ccccc2)c2ccco2)cc1 (stereo not given) | inactive: 44% |
| CCC(C(=O)OCCN(CC)CC)c1ccccc1 (stereo not given) | inactive: -8.09% |
| COc1ccc(N2C(=O)[C@@H]3Cc4ccccc4CN3C2=O)cc1 | inactive: -7.83% |
| CC(C)(C)n1c(=O)[nH]c2c(c1=O)CCC2 | inactive: -8.49% |
| O=C1CC2(CCCC2)CC(=O)N1CCCCN1CCN(c2ncccn2)CC1 | inactive: -1.6% |
| CC[C@H]1OC(=O)[C@H](C)[C@@H](O[C@H]2C[C@@](C)(OC)[C@@H](O)[C@H](C)O2)[C@H](C)[C@@H](O[C@@H]2O[C@H](C)C[C@H](N(C)C)[C@H]2O)[C@](C)(O)C[C@@H](C)[C@@H]2N[C@@H](COCCOC)O[C@H]([C@H]2C)[C@]1(C)O | inactive: 14.9% |
| COc1ccc2c(CC(=O)NCC3CCC(C(=O)O)CC3)cc(=O)oc2c1 (stereo not given) | inactive: -4.32% |
| CCOc1ccccc1OCCOc1ccc(F)cc1 | inactive: 5.05% |
| O=C1C(Cc2c[nH]c3ccccc23)NC(=S)N1Cc1ccccc1 (stereo not given) | inactive: -79.2% |
| O=C(COc1ccccc1)Nc1ccc2c(c1)C(=O)N(CC1CCCO1)C2=O (stereo not given) | inactive: -9.17% |
| COc1cc(Cl)cc2c1Sc1ccccc1/C2=C/CCN(C)C | inactive: 45.5% |
| CCOC(=O)c1cccc(C(=O)OCC)n1 | inactive: -3.84% |
| O=C(Cc1ccccc1[N+](=O)[O-])NCCCN1CCOCC1 | inactive: 0.272% |
| COc1ccc(C2CC(c3c(O)cc(C)oc3=O)=NCCS2)c(OC)c1 (stereo not given) | inactive: -81.1% |
| CN1[C@@H]2CC[C@H]1CC(OC(=O)C(CO)c1ccccc1)C2 (stereo not given in full) | inactive: -0.351% |
| COc1ccc(CNCCC2(C(C)C)CCOC(C)(C)C2)cc1 (stereo not given) | inactive: 1.07% |
| CC1Cc2ccccc2N1NC(=O)c1ccc(Cl)c(S(N)(=O)=O)c1 (stereo not given) | inactive: 0.865% |
| CC(C)(C)[C@]1(O)CCN2C[C@H]3c4ccccc4CCc4cccc(c43)[C@@H]2C1 | inactive: 3.15% |
| Cn1c2[n+](c3ccc(Cl)cc3c1=O)Cc1ccccc1-2 | inactive: 7.93% |
| O=C(NCCC(c1ccccc1)c1ccco1)c1cccs1 (stereo not given) | inactive: -5.2% |
| CC(=O)Oc1cc2oc(=O)cc(C)c2cc1OC(C)=O | inactive: 0.129% |
| CC(=O)O[C@H]1C(=O)[C@@]2(C)[C@H]([C@H](OC(=O)c3ccccc3)[C@]3(O)C[C@H](OC(=O)[C@H](O)C(NC(=O)c4ccccc4)c4ccccc4)C(C)=C1C3(C)C)[C@]1(OC(C)=O)CO[C@@H]1C[C@@H]2O (stereo not given in full) | inactive: 5.9% |
